# Laboratory results published in PubChem BioAssay AID493014 (National Center for Advancing Translational Sciences (NCATS), 2011).
# Screen size: about 340,000 compounds; about 170 (0.05%) were called active. Inconclusive means that the source gave no clear call. Such entries were picked first, then a sample of the others. The call rests on the fitted dose curve; in most records, active means well fitted inhibition curve with a large enough effect in the signal ratio, with a control signal flat (not every such curve was filed as active); inconclusive means small, poorly fitted or top-dose-only effect, or effect the other way, or a change in a side signal; inactive means flat fitted curve, though single readings scatter; the % refers to the signal ratio. Potencies of inconclusive entries are doubtful fits and often do not repeat.
# Experiment: qHTS Assay to Find Inhibitors of Chronic Active B-Cell Receptor Signaling;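 on activity change, negative = inhibition: plate controls were basal doxycycline-induced cells for no effect and cells given 10 µM MG132 for full effect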
# Conditions: ABC-DLBCL IkBa-CBG/CBR reporter, luminescence ratio (green luciferase fused to IkBa over red control in TMD8 lymphoma cells), 4 h; activity change, negative = inhibition: at 46.1 µM (top of the series)
# Outline: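 TMD8 ABC-DLBCL cells carrying doxycycline-inducible green luciferase fused to IkappaBalpha plus unfused red luciferase were exposed to compounds (up to 46 uM) for 4 hrs at 37C. Activity came from the overlap-corrected green/red luminescence ratio.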
# Potency means the concentration at half of the fitted maximal effect.
SMILES,"activity change, negative = inhibition",Potency
C=CC[C@@H](CC(=O)N(CCO)Cc1ccccc1)C(=O)NC[C@H](OC(=O)[C@@H](CC=C)CC(=O)OC(C)(C)C)c1ccccc1,inconclusive: -0.151%,–
COc1ccccc1Cc1noc(COc2cccc(C)c2C)n1,inconclusive: 0.177%,–
O=[N+]([O-])c1cc2c(cc1/C=N/Nc1nc(Nc3ccccc3)nc(N3CCCCC3)n1)OCO2,inconclusive: 0.344%,–
S=C(NCCc1ccccc1)N1CCN(C(c2ccccc2)c2ccccc2)CC1,inactive,–
O=C(CN1CCN(Cc2ccc(Cl)cc2)CC1)N/N=C/C=C/c1ccccc1[N+](=O)[O-],–,"inconclusive: 29.1 µM [falling, single point]"
Cc1ccc(C)c(NC(=O)CN(C)C(=O)c2ccc(-c3ccc(Cl)cc3)o2)c1,inconclusive: 18%,–
O=C(C[C@@H]1C/C=C\C[C@H](NC(=O)OCC2c3ccccc3-c3ccccc32)C(=O)OC[C@H]2CCCN2C1=O)N[C@@H](CO)Cc1ccccc1,inconclusive: -12.9%,–
O=C(CCCc1nc(-c2ccccc2)no1)NC1CCCC1,–,"inconclusive: 2.82 µM [activator, full curve]"
COc1ccccc1CN1C[C@@H]2C[C@@H](c3ccc(C)cc3)N3CCC[C@@]23C1=O,inactive,–
Cc1cc(C)cc(NC(=S)NCc2cccnc2)c1,inconclusive: -1.22%,–
O=C1CSC(c2ccccc2[N+](=O)[O-])N1c1cccc(F)c1 (stereo unspecified),–,"inconclusive: 35.5 µM [falling, single point]"
CCOc1ccc(/C=C2/SC(=O)NC2=S)cc1,inconclusive: -7.26%,–
O=[N+]([O-])c1ccc(SCc2ccncc2)nc1,inconclusive: 4.25%,–
COC(=O)Cc1ccc2sc(-c3ccccc3)nc2c1,–,"inconclusive: 18.4 µM [falling, single point]"
COc1cc2c(cc1OC)-c1cc3ccc4c(c3c[n+]1CC2)OCO4,inconclusive: 11.9%,–
O=C(CCNS(=O)(=O)c1ccccc1C(F)(F)F)NCc1ccc2c(c1)OCO2,–,"inconclusive: 6.51 µM [falling, single point]"
O=C(Nc1ccccc1)C1CC(O)CN1S(=O)(=O)c1ccc([N+](=O)[O-])cc1 (stereo unspecified),inconclusive: 3.2%,–
CCN(CC(=O)NCc1cccs1)C(=O)/C=C/c1cccc(OC)c1OC,inconclusive: -1.1%,–
Clc1ccc(SCCCCn2ccnc2)cc1,inconclusive: 13.1%,–
c1ccc(-c2cc(N3CCCCC3)c3ccccc3n2)cc1,–,"inconclusive: 14.1 µM [rising, partial curve, poor fit]"
CCCCCNC(=O)c1ccccc1SC,inconclusive: 0.713%,–

SMILES,"activity change, negative = inhibition",Potency
O=C(NNc1nc(-c2ccc(Br)cc2)cs1)c1ccco1,inactive,–
O=C(CN1CCCC1)Nc1ccccc1Sc1ccc(Cl)cc1,inactive,–
COC(=O)c1c(NC(=O)c2nc3nc(C)cc(C(F)F)n3n2)sc2c1CCC2,inconclusive: -17.3%,–
COc1ccc(OC)c(C(=O)COC(=O)c2ccccc2O)c1,inconclusive: 3.55%,–
Cc1cnc(NC(=O)NCC2CCCC(CNC(=O)Nc3ncc(C)s3)C2)s1 (stereo unspecified),inconclusive: 22.2%,–
O=c1oc2ccccc2c(N2CCCCC2)c1CN1CCCC1,–,"inconclusive: 9.2 µM [falling, partial curve]"
Cn1c(=O)c2c(nc(N3CCNCC3)n2Cc2ccccc2Cl)n(C)c1=O,inactive,–
COP(=O)(OC)C(Nc1ccc(C)cc1)c1ccc([N+](=O)[O-])cc1 (stereo unspecified),–,"inconclusive: 5.17 µM [falling, full curve]"
CS(=O)(=O)c1ccc(N)c(SSc2cc(S(C)(=O)=O)ccc2N)c1,inactive,–
COc1ccc(-c2cc(C(=O)n3cnc4ccccc43)c3ccccc3n2)cc1,–,"inconclusive: 18.4 µM [falling, single point]"
CCc1cc(C(=O)NCC(c2ccco2)N2CCCCC2)sc1C (stereo unspecified),inactive,–
COc1ccc2[nH]c(C)c(CCNC(=S)Nc3cc(C)ccc3C)c2c1,inconclusive: 5.17%,–
Cc1ccc(-n2nc(C)c3c(C(=O)OCC(=O)N(C)C4CCS(=O)(=O)C4)cc(-c4ccccc4)nc32)cc1 (stereo unspecified),inactive,–
CCOC(=O)C1=C(C)NC(SC)=C(C#N)C1CC(C)C (stereo unspecified),–,"inconclusive: 5.62 µM [falling, partial curve]"
O=C(Nc1ncc([N+](=O)[O-])s1)c1ccccc1Br,–,"inconclusive: 31.6 µM [falling, partial curve, poor fit]"
CCN1CCCC1CNC(=O)c1cc2c(-c3cccc(OC)c3)nn(C)c2s1 (stereo unspecified),–,"inconclusive: 7.31 µM [rising, partial curve, poor fit]"
COc1ccccc1NC(=O)CSc1nnnn1-c1ccc(C)cc1,–,"inconclusive: 14.6 µM [falling, partial curve, poor fit]"
O=C1NC(=O)/C(=C\c2ccccc2Oc2ccc(F)c(F)c2)S1,inactive,–
Cc1ccc(C2CCN(C(=O)Nc3ccc(Cl)c(Cl)c3)C2)cc1 (stereo unspecified),inconclusive: -20.7%,–
Cc1cccc(OCCCOc2cccc3cccnc23)c1C,inactive,–
CCNC(=S)N/N=C(\C)c1ccco1,–,"inconclusive: 35.5 µM [falling, single point]"

# As a working copy, some entries already given.
SMILES,"activity change, negative = inhibition",Potency
O=C(CN1CCN(Cc2ccc(Cl)cc2)CC1)N/N=C/C=C/c1ccccc1[N+](=O)[O-],–,"inconclusive: 29.1 µM [falling, single point]"
Cc1ccc(C)c(NC(=O)CN(C)C(=O)c2ccc(-c3ccc(Cl)cc3)o2)c1,inconclusive: 18%,–
O=C(C[C@@H]1C/C=C\C[C@H](NC(=O)OCC2c3ccccc3-c3ccccc32)C(=O)OC[C@H]2CCCN2C1=O)N[C@@H](CO)Cc1ccccc1,inconclusive: -12.9%,–
O=C(CCCc1nc(-c2ccccc2)no1)NC1CCCC1,–,"inconclusive: 2.82 µM [activator, full curve]"

# Additional entries.

SMILES,"activity change, negative = inhibition",Potency
CC(=O)N1CCc2cc(S(=O)(=O)CCC(=O)N3CCC(C)CC3)ccc21,inconclusive: -2.67%,–
O=C(O)c1ccccc1CSc1nc2ccccc2o1,inconclusive: -26.2%,–
COc1ccc(NC(=O)CC(C)CC(=O)NCc2ccccc2)c(OC)c1 (stereo unspecified),inactive,–
NC(=O)C1CCN(c2ccnc3cc(Cl)ccc23)CC1,inactive,–
O=C(O)Cc1sc(-c2ccc(C(=O)O)cc2)nc1-c1ccccc1,–,"inconclusive: 35.5 µM [rising, single point]"
CCOc1ccc2nc(NC(=O)C3CCCO3)sc2c1 (stereo unspecified),inactive,–
CCC(C)(C)C1CCc2[nH]nc(C(=O)NCc3ccccn3)c2C1 (stereo unspecified),inactive,–
O=C(CSc1nc2ccccc2c(=O)[nH]1)Nc1ccccc1C(F)(F)F,inconclusive: -0.724%,–
CC1CCc2[nH]c3ccc(C(=O)N(C)CC(=O)Nc4ccccc4Br)cc3c2C1 (stereo unspecified),–,"inconclusive: 2.06 µM [rising, full curve]"
O=C(Nc1ccc2nc3n(c(=O)c2c1)CCCCC3)c1cc([N+](=O)[O-])ccc1F,inconclusive: 379% [cytotoxic],–
Cc1ccc(NC(=O)c2nc[nH]c2C(=O)NCCCCCNC(=O)OC(C)(C)C)cc1,inactive,–
CCOc1ccc(S(=O)(=O)/N=C(/Nc2ccc(C(C)=O)cc2)c2ccccc2)cc1,–,"inconclusive: 29.1 µM [falling, partial curve, poor fit]"
N#Cc1ccccc1OCC(=O)NC1CCCCC1,–,"inconclusive: 20.6 µM [falling, partial curve]"
COc1cccc(/C=N/Nc2nnc(C)n2N)c1O,inconclusive: -23.6%,–
CCCNC(=O)c1cc(S(=O)(=O)N2CCc3ccccc32)cn1C,inactive,–
COc1ccc(NC(=O)CN2C(=O)COc3ccc(C)cc32)cc1,inconclusive: 5.58%,–
COC(=O)c1ccccc1NC(=O)CNC(=O)c1ccc(OC)c(OC)c1,inconclusive: 5.49%,–
Cc1cccc(NC(=O)/C(=C/c2cccc([N+](=O)[O-])c2)NC(=O)c2cccs2)c1,inactive,–
COc1ccc(CCN(C)c2ncnc3sccc23)cc1OC,inconclusive: -1.28%,–
Cc1nn2cc(-c3ccccc3)nc2[nH]c1=O,inactive,–
O=[N+]([O-])c1ccc(OCCCCN2CCc3ccccc3C2)cc1,inactive,–

SMILES,"activity change, negative = inhibition",Potency
Cc1c(O)nc(SCC(=O)Nc2ccc3c4c(cccc24)CC3)n(-c2ccccc2)c1=O,inconclusive: -19.6%,–
CCN(CC)CCNC(=O)c1cc([N+](=O)[O-])c(N(C)C)cc1OC,inconclusive: 1.99%,–
CC(=O)C1=C(C)NC2=C(C(=O)c3ccccc32)C1c1ccccc1 (stereo unspecified),–,"inconclusive: 11.2 µM [rising, partial curve]"
COc1ccccc1CCC(=O)Nc1nc2ccccc2[nH]1,–,"inconclusive: 9.2 µM [rising, single point]"
CCC(c1nnnn1C1CCCC1)N1CCN(c2cccc(OC)c2)CC1 (stereo unspecified),inactive,–
O=C(Nc1nc(-c2ccco2)c(-c2ccco2)s1)c1ccco1,–,"inconclusive: 0.0461 µM [rising, full curve]"
O=C(Nc1ccccc1)c1sc(N2CCOCC2)nc1-c1ccccc1,–,"inconclusive: 23.1 µM [falling, single point]"
COc1ccc(/C=N\Nc2ccc([N+](=O)[O-])cc2[N+](=O)[O-])c(C(=O)O)c1OC,inconclusive: 17%,–
O=C(Oc1cccc2cccnc12)c1cccs1,–,"inconclusive: 25.9 µM [falling, single point]"
Cc1ccc(NC(=O)c2sccc2-n2cccc2)c(C)c1,inactive,–
O=C1N2CN(C(c3ccccc3)c3ccccc3)CN=C2SC1(CO)CO,–,"inconclusive: 4.11 µM [falling, partial curve, poor fit]"
CC(C(=O)N1c2ccccc2CCc2ccccc21)n1nnc(-c2ccc(N(C)C)cc2)n1 (stereo unspecified),inactive,–
CCOc1cccc2cc(-c3cn4c(n3)sc3ccccc34)c(=O)oc12,–,"inconclusive: 1 µM [falling, full curve, poor fit]"
CC(C)C[C@H](N)c1nnc(SCC(=O)Nc2ccc(Br)cc2)o1,inconclusive: -22%,–
Cc1csc(NC(=O)c2ccc3c(c2)OCO3)n1,inconclusive: -25.5%,–
c1ccc(-c2nc3ccccc3nc2-c2ccccn2)nc1,inconclusive: 8.39%,–
O=C(CCNc1ccc(F)c(Cl)c1)c1ccco1,inactive,–
Cc1cccc2nc(CSc3nc4[nH]ncc4c(=O)n3-c3ccccc3Cl)cc(=O)n12,–,"inconclusive: 23.1 µM [falling, single point]"

# Fetched by compound from the entries so far (two):
SMILES,"activity change, negative = inhibition",Potency
CC(=O)C1=C(C)NC2=C(C(=O)c3ccccc32)C1c1ccccc1 (stereo unspecified),–,"inconclusive: 11.2 µM [rising, partial curve]"
CCN(CC)CCNC(=O)c1cc([N+](=O)[O-])c(N(C)C)cc1OC,inconclusive: 1.99%,–
